Percent effect of library compounds

Chains of the proteins cited; added tags and fusions are not shown. Residues count along the entry.
UniProt P9WNZ1, whole entry: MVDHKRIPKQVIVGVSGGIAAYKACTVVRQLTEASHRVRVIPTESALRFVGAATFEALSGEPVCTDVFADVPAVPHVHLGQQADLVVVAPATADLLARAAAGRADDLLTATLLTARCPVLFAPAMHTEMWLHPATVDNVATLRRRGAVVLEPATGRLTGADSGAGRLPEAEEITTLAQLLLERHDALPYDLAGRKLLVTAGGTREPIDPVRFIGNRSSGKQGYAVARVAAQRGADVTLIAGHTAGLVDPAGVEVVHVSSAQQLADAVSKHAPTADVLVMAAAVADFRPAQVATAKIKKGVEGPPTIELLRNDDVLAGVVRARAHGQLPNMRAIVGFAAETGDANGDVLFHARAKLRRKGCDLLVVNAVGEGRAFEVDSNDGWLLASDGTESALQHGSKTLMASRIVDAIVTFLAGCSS
UniProt Q8IDJ8, 1-583: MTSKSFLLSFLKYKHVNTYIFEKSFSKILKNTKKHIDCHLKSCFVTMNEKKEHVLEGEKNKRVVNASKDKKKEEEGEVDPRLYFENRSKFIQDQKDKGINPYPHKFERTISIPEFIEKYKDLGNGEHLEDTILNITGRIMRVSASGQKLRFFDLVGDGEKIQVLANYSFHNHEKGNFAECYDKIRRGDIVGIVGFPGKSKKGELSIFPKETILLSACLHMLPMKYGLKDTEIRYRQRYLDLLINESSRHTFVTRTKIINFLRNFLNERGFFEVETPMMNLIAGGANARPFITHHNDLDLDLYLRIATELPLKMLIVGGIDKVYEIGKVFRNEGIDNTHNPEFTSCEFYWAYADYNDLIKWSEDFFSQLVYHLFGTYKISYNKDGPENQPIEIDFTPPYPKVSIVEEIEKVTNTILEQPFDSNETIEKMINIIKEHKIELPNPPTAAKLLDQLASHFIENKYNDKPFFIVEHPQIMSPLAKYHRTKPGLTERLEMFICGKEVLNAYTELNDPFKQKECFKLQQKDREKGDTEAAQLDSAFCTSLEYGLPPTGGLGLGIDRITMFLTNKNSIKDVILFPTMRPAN
UniProt P9WFT3, whole entry: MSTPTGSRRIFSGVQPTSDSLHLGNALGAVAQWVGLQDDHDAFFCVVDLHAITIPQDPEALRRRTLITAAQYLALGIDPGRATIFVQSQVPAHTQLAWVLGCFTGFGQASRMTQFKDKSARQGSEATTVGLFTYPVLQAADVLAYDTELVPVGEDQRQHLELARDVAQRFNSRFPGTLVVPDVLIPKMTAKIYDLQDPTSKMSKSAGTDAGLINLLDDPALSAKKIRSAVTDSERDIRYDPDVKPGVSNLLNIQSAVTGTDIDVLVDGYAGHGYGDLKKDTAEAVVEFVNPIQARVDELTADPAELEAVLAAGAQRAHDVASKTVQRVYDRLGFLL
UniProt I6X8D2, whole entry: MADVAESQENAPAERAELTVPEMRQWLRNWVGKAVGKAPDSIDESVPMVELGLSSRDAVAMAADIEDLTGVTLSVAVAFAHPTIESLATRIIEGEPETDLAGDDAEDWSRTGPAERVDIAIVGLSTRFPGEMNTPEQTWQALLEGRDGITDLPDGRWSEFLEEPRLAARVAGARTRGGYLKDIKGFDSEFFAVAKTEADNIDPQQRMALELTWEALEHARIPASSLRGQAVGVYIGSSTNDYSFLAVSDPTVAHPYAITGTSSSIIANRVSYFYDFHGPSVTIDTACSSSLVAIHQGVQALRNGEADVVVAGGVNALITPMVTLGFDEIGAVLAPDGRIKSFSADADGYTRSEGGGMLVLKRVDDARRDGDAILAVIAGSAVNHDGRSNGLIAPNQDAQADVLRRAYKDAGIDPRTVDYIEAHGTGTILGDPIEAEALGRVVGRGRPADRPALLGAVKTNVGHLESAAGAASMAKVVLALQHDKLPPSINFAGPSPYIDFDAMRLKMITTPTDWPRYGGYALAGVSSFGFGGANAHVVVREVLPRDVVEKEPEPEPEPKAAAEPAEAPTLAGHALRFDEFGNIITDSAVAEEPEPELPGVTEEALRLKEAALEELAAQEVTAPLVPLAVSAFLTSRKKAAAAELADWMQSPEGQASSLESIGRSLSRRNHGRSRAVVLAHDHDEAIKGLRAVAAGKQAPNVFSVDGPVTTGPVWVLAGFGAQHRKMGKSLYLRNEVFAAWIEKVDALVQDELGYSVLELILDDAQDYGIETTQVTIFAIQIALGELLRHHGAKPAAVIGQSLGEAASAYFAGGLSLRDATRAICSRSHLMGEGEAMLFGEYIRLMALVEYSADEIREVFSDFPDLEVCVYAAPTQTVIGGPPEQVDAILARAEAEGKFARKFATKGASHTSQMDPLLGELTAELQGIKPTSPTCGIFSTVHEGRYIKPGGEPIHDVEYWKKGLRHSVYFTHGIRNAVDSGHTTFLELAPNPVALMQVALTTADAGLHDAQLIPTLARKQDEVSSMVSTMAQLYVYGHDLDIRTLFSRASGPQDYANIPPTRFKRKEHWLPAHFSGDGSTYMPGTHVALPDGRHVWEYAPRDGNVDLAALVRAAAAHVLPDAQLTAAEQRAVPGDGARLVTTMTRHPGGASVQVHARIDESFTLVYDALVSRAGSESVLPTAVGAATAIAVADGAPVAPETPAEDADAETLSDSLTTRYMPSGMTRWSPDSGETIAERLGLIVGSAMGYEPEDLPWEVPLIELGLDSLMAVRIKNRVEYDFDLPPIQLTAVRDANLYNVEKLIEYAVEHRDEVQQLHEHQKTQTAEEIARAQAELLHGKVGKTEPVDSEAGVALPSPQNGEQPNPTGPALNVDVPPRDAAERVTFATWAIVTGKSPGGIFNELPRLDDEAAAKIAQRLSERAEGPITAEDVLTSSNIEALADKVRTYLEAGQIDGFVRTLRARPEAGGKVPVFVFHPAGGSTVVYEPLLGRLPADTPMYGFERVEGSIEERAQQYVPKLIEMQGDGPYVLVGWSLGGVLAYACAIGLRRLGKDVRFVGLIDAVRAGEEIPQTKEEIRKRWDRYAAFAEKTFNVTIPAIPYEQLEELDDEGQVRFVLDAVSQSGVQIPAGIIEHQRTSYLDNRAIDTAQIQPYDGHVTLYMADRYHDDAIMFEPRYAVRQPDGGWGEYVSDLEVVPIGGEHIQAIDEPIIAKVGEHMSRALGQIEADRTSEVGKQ

Source: ChEMBL document CHEMBL3988442, “University of Dundee, Small-Polar-MMV Screening Library” (2021).

CoaBC: 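Coenzyme A biosynthesis protein CoaBC, Mycobacterium tuberculosis (UniProt P9WNZ1). Enzyme assay of CoaBC with a phosphate dye (Biomol Green) read at 650 nm. Compounds at 30 µM. Direction is inferred from only a few compounds that gave an IC50; most scored high, so higher reads as stronger inhibition. Most strong results did not repeat in a second test. Of about 67,000 compounds tested this way, about 40 (0.06%) reached 50% or more in at least one test.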
PfKRS1: 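Lysine-tRNA ligase, Plasmodium falciparum 3D7 (UniProt Q8IDJ8). Enzyme assay of the cytosolic lysyl-tRNA synthetase in 384-well plates, read by luminescence. Concentration: 30 µM. Higher reads as stronger inhibition, judged from the few compounds that gave an IC50. About 69,000 compounds were tested under these conditions; 0.071% (about 49) showed 50% or more at least once.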
Toxoplasma: 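Assay of Toxoplasma gondii numbers, read through their beta-galactosidase reporter with a colour substrate. Concentration: 10 µM. Higher reads as fewer parasites (inferred from which compounds were picked for retests). Size under these conditions: about 67,000 compounds, about 260 of them at 50% or above in at least one test.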
MtTrpRS: 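Tryptophan-tRNA ligase, Mycobacterium tuberculosis (UniProt P9WFT3). Enzyme assay of tryptophanyl-tRNA synthetase; the read-out is not stated. Compounds at 10 µM. Direction is not recorded; retested compounds ran higher, which suggests that high means inhibition. Of about 65,000 compounds tested this way, about 64 (0.098%) reached 50% or more in at least one test.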
Pks13 thioesterase: 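Enzyme assay of the thioesterase domain of polyketide synthase 13; the read-out is not stated. Target: Polyketide synthase Pks13, Mycobacterium tuberculosis (UniProt I6X8D2). Concentration: 30 µM. Higher reads as stronger inhibition (inferred from which compounds were picked for retests). Of about 67,000 compounds tested this way, about 300 (0.46%) reached 50% or more in at least one test.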

The filed quantity is “Percent Effect” (%).
How 0% and 100% were set is not recorded. Most values in the screen are low, and negative values occur.
This is an unselected part of the compounds tested.
Two or more numbers in one place are separate tests of the same structure; such repeats can differ widely.
A dash means the value is not listed here; it may have been measured.

| # | structure | CoaBC | PfKRS1 | Toxoplasma | MtTrpRS | Pks13 thioesterase |
|---|---|---|---|---|---|---|
| 1 | `COCc1nnc(C(=O)N2CCCC(O)C2)o1` (stereo unspecified) | 6.397 | 4.998 | -0.5445 | 5.806 | -1.158 |
| 2 | `CS(=O)(=O)c1ccc(C(O)CN2CCC(c3ccn[nH]3)CC2)cc1` (stereo unspecified) | 4.37 | 9.753 | - | -0.07868 | -30.35 |
| 3 | `CCc1ncc(C(=O)N2CCCC(c3nccn3CCOC)C2)cn1` (stereo unspecified) | -2.121 | 3.045 | 6.57 | -2.008 | - |
| 4 | `CCc1cc(NCCN2CCNC2=O)n2nccc2n1` | 5.291 & 21.84 | -3.713 | -6.698 | 0.7843 | 0.4024 |
| 5 | `CC(C)n1cnc(C2CN(C)c3ccc(C(=O)NCC4CC4)cc32)n1` (stereo unspecified) | 5.684 | 1.576 | -5.756 | -2.311 | -16.76 |
| 6 | `CC(C)(C)n1cc(C2=CCN(CCN3CCCCCC3)CC2)cn1` | -13.21 | -0.7197 | -4.643 | 0.831 | -14.28 |
| 7 | `CN(C(=O)c1ccc(C2CCCO2)s1)C1CCS(=O)(=O)CC1` (stereo unspecified) | 2.146 | 2.214 | -2.725 | -2.023 | 0.194 |
| 8 | `[H][C@@]12CN(Cc3csc(C)n3)C[C@]1([H])CN(C(=O)c1ccc(C)nc1)C2` | - | - | -9.818 | - | - |
| 9 | `Cn1cccc1C(=O)NCc1cnc2n1CCN(c1ccccn1)C2` | 1.629 | -0.136 | -1.127 | -6.021 | -28.24 |
| 10 | `[H][C@@]12COC[C@]1([H])[C@@H](OCC1CCOCC1)CN2Cc1ccco1` | - | - | 3.712 | - | - |
| 11 | `Cc1cnn(CCC(=O)Nc2ccc(F)cc2OCC2CC2)c1` | -0.7335 | -0.4722 | 5.435 | -2.741 | -6.88 |
| 12 | `CCN1CCC(NC(=O)N(C)Cc2csc3ccccc23)CC1` | 9.246 | 1.656 | -27.65 | -2.687 | -34.61 |
| 13 | `CN(C)c1ccc(C(O)CNC(=O)NCCCc2ccccc2)cc1` (stereo unspecified) | 6.489 | 2.603 | 7.339 | 2.227 | -3.259 |
| 14 | `CCc1cnc(N2CCc3ncnc(N4CCN(C)CC4)c3CC2)nc1.O=C(O)C(F)(F)F` | - | - | -2.121 | - | - |
| 15 | `COC(=O)c1cccc(CN(C)Cc2ncnn2C)c1C#N` | -4.073 | 4.357 | -2.291 | -4.063 | -15.51 |
| 16 | `O=C(NCC(O)c1ccc(F)cc1)C1CCN(C2CCCCC2)CC1` (stereo unspecified) | 7.73 | 7.645 | 10.64 | 1.069 | -15.07 |
| 17 | `Cn1cc(CN2CCC(F)(F)C3(CCN(c4ccccn4)C3)C2)cn1` (stereo unspecified) | 0.6588 | 2.673 | - | -0.6785 | -19.04 |
| 18 | `O=C(Cc1cccnc1)N1CCC2(CCN(CC3CCCCC3)C2)CC1.O=C(O)C(F)(F)F.O=C(O)C(F)(F)F` | - | - | -6.691 | - | - |
| 19 | `CCC(=O)N1CCC(c2cc(Nc3ncccn3)nc(C)n2)C1` (stereo unspecified) | 3.346 | 1.301 | -32.25 | - | 1.959 |
| 20 | `COc1ccc(C2CC(=O)Oc3cc(C)[nH]c(=O)c32)c(OC)c1` (stereo unspecified) | 4.835 | 3.05 | 3.826 | 2.288 | -10.04 |
| 21 | `Cc1nc[nH]c1CN(C)Cc1cnn(-c2ccc(F)cc2)c1` | -2.917 | -4.307 | 22.8 | -5.061 | -11.76 |
| 22 | `Cc1nc(C)n(CC2CCCN(CCOc3ccccc3F)C2)n1` (stereo unspecified) | 4.178 | -1.308 | -6.866 | 22.82 | -26.35 |
| 23 | `CN(C)C(=O)N1CCC2(CC(=O)N(c3ccc4c(c3)OCO4)C2)C1` (stereo unspecified) | -1.844 | 3.051 | 2.51 | -3.111 | 4.89 |
| 24 | `O=C(O)c1ccccc1-c1ccc(Cn2c(=O)cc[nH]c2=O)cc1` | 0.1227 | 0.2289 | -7.676 | -6.512 | 3.047 |
| 25 | `Cc1nn(C)c(Cl)c1CNCc1cccnc1N1CCCCC1` | 8.239 | -24.08 | - | 0.4122 | -7.805 |
| 26 | `COCC1COCCC12CCN(CCc1ccccc1)CC2.O=C(O)C(F)(F)F` (stereo unspecified) | - | - | -7.54 | - | - |
| 27 | `Cc1[nH]c2ccccc2c1-c1ccnc(N[C@H](CO)CC(C)C)n1` | 4.94 | 5.061 | 53.1 | - | 5.326 |
| 28 | `CCc1cc(NCCCNS(C)(=O)=O)nc(-c2ccncc2)n1` | 5.223 | 2.482 | 5.852 | 0.1022 | -38.48 |
| 29 | `CCc1nc2c(c(N3CCOCC3)n1)CCN(C(=O)N1CCCC1)CC2` | 1.282 | -0.04134 | -1.989 | -2.641 | -32.35 |
| 30 | `CCCc1noc(C2CCCCN2C(=O)CCc2cnn(C)c2)n1` (stereo unspecified) | -4.74 | 5.784 | 9.866 | -0.5025 | -25.81 |
| 31 | `O=C(O)Cn1nc(C2CC2)c2c(-c3ccc(F)cc3)ccnc21` | -3.855 | 2.013 | -16.66 | 2.136 | 8.707 |
| 32 | `Cc1cnn(CC2CN(Cc3csc(C4CCCC4)n3)CCO2)c1` (stereo unspecified) | 5.492 | 2.208 | -11.59 | -2.715 | -15.07 |
| 33 | `O=C(C1CCOCC1)N1C[C@@H]2[C@@H](C1)OCC(=O)N2Cc1ccncc1` | -3.226 | 5.317 | - | 1.562 | -12.11 |
| 34 | `O=c1[nH]c2c(c(=O)n1C1CCCCC1)CCC2NCCc1ccccc1` (stereo unspecified) | 5.787 | 55.62 | 3.586 | 1.809 | -35.18 |
| 35 | `CNc1cc(N2CCCC2CNCc2cnc(C)cn2)ncn1` (stereo unspecified) | 8.808 | 0.9378 | 8.797 | -0.6681 | -1.301 |

Repeated from the top, 4 entries:

* COCc1nnc(C(=O)N2CCCC(O)C2)o1 (stereo unspecified) | CoaBC: 6.397%; PfKRS1: 4.998%; Toxoplasma: -0.5445%; MtTrpRS: 5.806%; Pks13 thioesterase: -1.158%
* CS(=O)(=O)c1ccc(C(O)CN2CCC(c3ccn[nH]3)CC2)cc1 (stereo unspecified) | CoaBC: 4.37%; PfKRS1: 9.753%; MtTrpRS: -0.07868%; Pks13 thioesterase: -30.35%
* CCc1ncc(C(=O)N2CCCC(c3nccn3CCOC)C2)cn1 (stereo unspecified) | CoaBC: -2.121%; PfKRS1: 3.045%; Toxoplasma: 6.57%; MtTrpRS: -2.008%
* CCc1cc(NCCN2CCNC2=O)n2nccc2n1 | CoaBC: 5.291% & 21.84%; PfKRS1: -3.713%; Toxoplasma: -6.698%; MtTrpRS: 0.7843%; Pks13 thioesterase: 0.4024%